Source: PMC10360236
No constants are given. Whether binding was seen depends on the method and setting. In cells and extracts the contact can be indirect. Some binding calls cover weakened binding; strength is not graded here. Sequences can lack the tags named with a protein.

Chains of the proteins cited; added tags and fusions are not shown.
UniProt P55128: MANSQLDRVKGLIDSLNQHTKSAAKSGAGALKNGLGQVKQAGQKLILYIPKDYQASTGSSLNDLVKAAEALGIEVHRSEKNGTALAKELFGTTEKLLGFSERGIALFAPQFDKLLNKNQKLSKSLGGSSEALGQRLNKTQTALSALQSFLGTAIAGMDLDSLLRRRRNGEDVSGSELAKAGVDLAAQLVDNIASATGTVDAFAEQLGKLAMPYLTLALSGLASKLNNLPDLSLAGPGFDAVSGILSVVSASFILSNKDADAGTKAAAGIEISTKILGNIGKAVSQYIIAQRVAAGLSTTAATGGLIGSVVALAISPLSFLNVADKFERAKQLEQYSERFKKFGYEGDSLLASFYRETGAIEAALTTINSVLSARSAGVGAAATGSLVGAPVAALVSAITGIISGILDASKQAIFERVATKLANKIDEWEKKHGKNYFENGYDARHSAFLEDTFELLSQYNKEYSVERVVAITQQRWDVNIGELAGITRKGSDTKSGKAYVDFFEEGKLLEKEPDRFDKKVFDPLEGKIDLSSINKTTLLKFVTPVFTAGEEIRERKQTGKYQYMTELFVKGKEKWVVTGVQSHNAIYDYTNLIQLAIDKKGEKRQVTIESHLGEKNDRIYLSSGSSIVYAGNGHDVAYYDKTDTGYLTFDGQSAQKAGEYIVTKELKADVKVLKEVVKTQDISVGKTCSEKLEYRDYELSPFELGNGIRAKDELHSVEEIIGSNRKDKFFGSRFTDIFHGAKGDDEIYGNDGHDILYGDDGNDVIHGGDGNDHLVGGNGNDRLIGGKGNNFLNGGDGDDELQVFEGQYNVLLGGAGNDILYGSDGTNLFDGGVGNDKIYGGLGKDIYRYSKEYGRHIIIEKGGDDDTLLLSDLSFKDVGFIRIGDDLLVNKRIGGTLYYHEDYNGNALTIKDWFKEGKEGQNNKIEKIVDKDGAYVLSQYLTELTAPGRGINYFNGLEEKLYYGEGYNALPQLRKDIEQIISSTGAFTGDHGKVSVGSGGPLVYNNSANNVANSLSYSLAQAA

T1: Flag-CAV1 recombinant protein (porcine caveolin-1) (porcine) (UniProt Q6RVA9)
T1 sequence: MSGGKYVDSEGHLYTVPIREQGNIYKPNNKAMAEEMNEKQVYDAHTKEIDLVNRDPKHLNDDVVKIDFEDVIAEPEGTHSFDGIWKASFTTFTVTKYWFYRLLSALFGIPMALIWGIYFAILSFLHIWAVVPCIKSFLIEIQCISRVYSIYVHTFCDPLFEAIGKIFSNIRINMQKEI

B1: Flag-CAV1 recombinant protein (porcine caveolin-1) (protein, UniProt Q6RVA9 1-178)
chain: MSGGKYVDSEGHLYTVPIREQGNIYKPNNKAMAEEMNEKQVYDAHTKEIDLVNRDPKHLNDDVVKIDFEDVIAEPEGTHSFDGIWKASFTTFTVTKYWFYRLLSALFGIPMALIWGIYFAILSFLHIWAVVPCIKSFLIEIQCISRVYSIYVHTFCDPLFEAIGKIFSNIRINMQKEI

Columns and labels:
[1] = molecular target: T1, Flag-CAV1 recombinant protein (porcine caveolin-1) (porcine); assay: co-IP; lysate of HEK 293 T cells transfected with Flag-CAV1 (1-2 mg total protein) incubated with 2.5 ug purified HA-ApxIA for 4 h at 4 °C; precipitated with anti-Flag mAb and protein A/G beads; western blot; only the binder purified
[2] = molecular target: HA-His-ApxIA fusion protein (Actinobacillus pleuropneumoniae serotype 1) (UniProt P55128); assay: co-IP; lysate of HEK 293 T cells transfected with Flag-CAV1 (1-2 mg total protein) incubated with 2.5 ug purified HA-ApxIA for 4 h at 4 °C; precipitated with anti-HA mAb and protein A/G beads; western blot; only the target purified

| Molecule | binding [1] | binding [2] |
| --- | --- | --- |
| HA-His-ApxIA fusion protein (from UniProt P55128 1-1023) | binds |  |
| B1 |  | binds |
